The source of these data is PubChem BioAssay AID248 (DTP/NCI, 2004).

The list shows only some results of the screen, not a fair sample: it gathers tests that were run many times, whatever their T/C, doses with no T/C, and many T/C values between a quarter and a half above the control. Further doses and runs are listed elsewhere. T/C gives the treated animals as a percentage of the vehicle group. Some entries give survivors of the animals treated and no T/C: the source holds a T/C of zero for them, seemingly a mark for toxic or unscored doses. Some doses without a T/C left all or most animals alive at the check, yet need not have been tolerated: survival well below the control is almost never listed, so the zero probably covers shortened survival too. Survivors were counted at the toxicity check, usually on the fifth day, unless a day is given; later deaths do not show. Schedule codes are those of the source, taken here to give the interval after Q, in days (D) or hours (H), and the number of doses after X.

This assay relates to L1210 leukemia ip in BDF1 mice, survival T/C. Kind of assay: NCI In Vivo Anticancer Drug Screen. Data for tumor model L1210 Leukemia (intraperitoneal) in B6D2F1 (BDF1) mice. The settings on record: T/C endpoint: mean survival time, higher T/C = longer survival.
Where [1] appears, read: dose: 400.0 mg/kg/injection, schedule: Q04DX003 (ip), vehicle: saline with Tween-80.
Setting [2] is: dose: 400.0 mg/kg/injection, schedule: Q01DX009 (ip), vehicle: saline with Tween-80.

For the molecule `CC(C)C(CN)(CCCCN1CCCC1)c1cccc2ccccc12` (stereo unspecified), the survivor count is 3 of 6 (dose: 100.0 mg/kg/injection, schedule: Q04DX003 (ip), vehicle: saline with Tween-80); 0 of 6 (dose: 200.0 mg/kg/injection, schedule: Q04DX003 (ip), vehicle: saline with Tween-80); 0 of 6 under setting [1].
For the molecule `CCOP(=[Se])(OCC)OCC`, the survivor count (dose: 100.0 mg/kg/injection, schedule: Q01DX009 (ip), vehicle: saline with Tween-80) is given as 0 of 6; the survivor count (dose: 200.0 mg/kg/injection, schedule: Q01DX009 (ip), vehicle: saline with Tween-80) is given as 0 of 6; the survivor count under setting [2] is 0 of 6.
Turning to `CC(C)(Cl)CCl`, the survivor count was 0 of 6 under setting [2] and 5 of 6 under setting [1].
In the case of `O=C(Nc1cccc(Cl)c1)c1cc([N+](=O)[O-])ccc1O`, the survivor count (dose: 100.0 mg/kg/injection, schedule: Q01DX001 (ip), vehicle: other) is 1 of 4; the survivor count (dose: 160.0 mg/kg/injection, schedule: Q02DX010 (ip), vehicle: carboxymethylcellulose (CMC)) is recorded as 6 of 6; the survivor count (dose: 200.0 mg/kg/injection, schedule: Q01DX001 (ip), vehicle: other) is reported as 0 of 4; the survivor count (dose: 400.0 mg/kg/injection, schedule: Q01DX001 (ip), vehicle: other) was 0 of 4.
For the molecule `O=C(NC(=S)Nc1cccc(F)c1)c1cccc([N+](=O)[O-])c1`, the survivor count (dose: 400.0 mg/kg/injection, schedule: Q01DX001 (ip), vehicle: saline with Tween-80) was 3 of 6.
For `CCC[CH2][Sn]([Br])([c]1ccccc1)[c]1ccccc1`, the survivor count was 3 of 6 (dose: 1.56 mg/kg/injection, schedule: Q01DX009 (ip), vehicle: saline with Tween-80); 3 of 6 (dose: 3.13 mg/kg/injection, schedule: Q01DX009 (ip), vehicle: saline with Tween-80); 1 of 6 (dose: 6.25 mg/kg/injection, schedule: Q01DX009 (ip), vehicle: saline with Tween-80); 0 of 3 (dose: 100.0 mg/kg/injection, schedule: Q04DX002 (ip), vehicle: saline with Tween-80); 0 of 3 (dose: 200.0 mg/kg/injection, schedule: Q04DX002 (ip), vehicle: saline with Tween-80); 0 of 3 (dose: 400.0 mg/kg/injection, schedule: Q04DX002 (ip), vehicle: saline with Tween-80).
Turning to `CC(=O)n1ncc2ccc(N)cc21`, the survivor count (dose: 200.0 mg/kg/injection, schedule: Q01DX009 (ip), vehicle: water) was 1 of 6 and the survivor count (dose: 400.0 mg/kg/injection, schedule: Q04DX003 (ip), vehicle: water) is on record as 2 of 6.
